Reference: patent US20190201541A1, “ANTI-CD22 ANTIBODY-MAYTANSINE CONJUGATES, COMBINATIONS, AND METHODS OF USE THEREOF” (Triphase Accelerator U.S. Corporation, priority 2017, published 2019)

Assay: Cynomolgus and human tissue cross-reactivity studies
Parameters: species or system human and cynomolgus monkey
Details: human and cynomolgus tissue microarrays

In the case of `COc1cc2cc(c1Cl)N(C)C(=O)C[C@H](OC(=O)[C@@H](C)N(C)C(=O)CCC(=O)N(CCOCCOCCC(=O)O)C1CCN(C(=O)CCn3c4c(c5ccccc53)C(C)N(C)N(C)C4)CC1)[C@]1(C)OC1[C@H](C)[C@@H]1CC(O)(NC(=O)O1)[C@H](OC)/C=C/C=C(\C)C2` (stereo partly drawn) [anti-CD22 ADC], the tissue cross-reactivity profile is reported as “B cell-specific reactivity”.
